PubChem BioAssay AID504774 – Drosophila RNAi Screening Center | 2011
The screen tested about 23,000 reagents; this is a random part of those with a known target gene and a result. 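Values are quantile-normalised luminescence on an arbitrary scale; higher means more cells surviving MMS.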 The numbers tell different reagents against one gene apart. No sequences are given here.

Purpose: 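Fly genes whose loss alters survival after alkylation damage to DNA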 (primary screen)
System: Drosophila Kc167 cells
Reagent: long dsRNA against Drosophila genes, about 0.25 µg dsRNA per well
Time to read-out: about 6 days: 3 days knock-down, then 3 days with or without MMS
Challenge: methyl methanesulphonate 0.004% (w/v) for 3 days after knock-down
Measurement: 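Viability in wells given MMS, read as ATP luminescence, normalised by quantiles plate by plate and averaged across replicates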
Scale: mean viability with MMS and viability with MMS: higher = more surviving cells after MMS

no.	target gene	dsRNA no.	mean viability with MMS	viability with MMS, replicate 1	viability with MMS, replicate 2
1	CG17597 (GeneID 35140)	1	3.51e6	3.96e6	4.01e6
2	CG5399 (GeneID 41900)	1	3.55e6	4.18e6	3.88e6
3	Elovl7 (GeneID 40943)	1	3.57e6	3.99e6	4.12e6
4	Elovl7 (GeneID 40943)	2	3.33e6	3.88e6	3.80e6
5	Cyp12c1 (GeneID 40037)	1	3.50e6	3.95e6	3.97e6
6	CG30002 (GeneID 246384)	1	3.52e6	4.02e6	3.98e6
7	RpL40 (GeneID 33629)	1	2.97e6	3.31e6	3.38e6
8	Oseg1 (GeneID 38957)	1	3.72e6	4.17e6	4.28e6
9	dlg1 (GeneID 32083)	1	3.37e6	3.83e6	3.82e6
10	dlg1 (GeneID 32083)	2	3.55e6	4.06e6	4.00e6
11	dlg1 (GeneID 32083)	3	3.58e6	4.03e6	4.06e6
12	dlg1 (GeneID 32083)	4	3.49e6	3.93e6	3.86e6
13	Or94a (GeneID 42711)	1	3.74e6	4.31e6	4.15e6
14	Hr51 (GeneID 36702)	1	3.53e6	4.05e6	3.93e6
15	Hr51 (GeneID 36702)	2	3.52e6	4.09e6	3.92e6
16	ND-20L (GeneID 43477)	1	3.65e6	4.18e6	4.08e6
17	CG7600 (GeneID 39267)	1	3.60e6	4.03e6	4.13e6
18	CycJ (GeneID 38428)	1	3.63e6	4.13e6	4.10e6
19	SiaT (GeneID 37950)	1	3.50e6	3.97e6	3.96e6
20	CG8399 (GeneID 36768)	1	3.50e6	3.98e6	3.95e6
21	nonA-l (GeneID 42026)	1	3.55e6	4.12e6	3.95e6
22	RYa-R (GeneID 43253)	1	3.75e6	4.25e6	4.24e6
23	Mis12 (GeneID 38762)	1	3.45e6	3.88e6	3.94e6

The list goes on (2 carried over from the part before).
no.	target gene	dsRNA no.	mean viability with MMS	viability with MMS, replicate 1	viability with MMS, replicate 2
22	RYa-R (GeneID 43253)	1	3.75e6	4.25e6	4.24e6
23	Mis12 (GeneID 38762)	1	3.45e6	3.88e6	3.94e6
24	CG31368 (GeneID 41437)	1	3.45e6	3.97e6	3.88e6
25	CG31368 (GeneID 41437)	2	3.56e6	4.11e6	3.98e6
26	CG13014 (GeneID 32626)	1	3.67e6	4.13e6	4.14e6
27	CG45067 (GeneID 38371)	1	3.54e6	3.95e6	4.08e6
28	CG34217 (GeneID 5740254)	1	3.37e6	3.86e6	3.73e6
29	hui (GeneID 36648)	1	3.56e6	3.99e6	4.08e6
30	lectin-21Cb (GeneID 33242)	1	3.52e6	3.98e6	4.00e6
31	gb (GeneID 43265)	1	3.83e6	4.05e6	4.63e6
32	CG13123 (GeneID 34303)	1	3.39e6	3.66e6	3.98e6
33	CG30281 (GeneID 246525)	1	3.76e6	4.38e6	4.16e6
34	CG4597 (GeneID 38604)	1	3.45e6	4.00e6	3.83e6
35	CG32835 (retired record) (GeneID 318239)	1	3.61e6	3.97e6	4.16e6
36	mod(mdg4) (GeneID 49228)	1	3.83e6	4.15e6	4.37e6
37	mod(mdg4) (GeneID 49228)	2	3.90e6	4.13e6	4.50e6
38	mod(mdg4) (GeneID 49228)	3	3.45e6	3.81e6	4.02e6
39	mod(mdg4) (GeneID 49228)	4	3.55e6	3.98e6	4.10e6
40	mod(mdg4) (GeneID 49228)	5	3.59e6	4.07e6	4.07e6
41	mod(mdg4) (GeneID 49228)	6	3.46e6	3.89e6	3.96e6
42	CG6040 (GeneID 42292)	1	3.54e6	4.08e6	3.95e6
43	CG12836 (GeneID 35630)	1	3.65e6	4.09e6	4.11e6
44	dpr1 (GeneID 2768858)	1	3.64e6	4.13e6	4.08e6
45	dpr1 (GeneID 2768858)	2	3.66e6	4.08e6	4.16e6
46	alpha-Man-IIa (GeneID 41126)	1	3.60e6	4.10e6	4.02e6
